This assay deals with Piezo1 (mouse (endogenous in bone marrow-derived pre-OCs)) (UniProt E2JF22). Put plainly: co-IP; lysate of pre-OCs (RIPA buffer with protease inhibitors), stimulated with Yoda1 for 30 min; anti-Piezo1 antibody overnight at 4°C, Protein A/G magnetic beads, washed with TBST; blot with anti-PP2A.

Chains of the proteins cited; added tags and fusions are not shown. Lines headed by an entry give the natural chain unless they say otherwise; changes in a name come on top.
UniProt E2JF22: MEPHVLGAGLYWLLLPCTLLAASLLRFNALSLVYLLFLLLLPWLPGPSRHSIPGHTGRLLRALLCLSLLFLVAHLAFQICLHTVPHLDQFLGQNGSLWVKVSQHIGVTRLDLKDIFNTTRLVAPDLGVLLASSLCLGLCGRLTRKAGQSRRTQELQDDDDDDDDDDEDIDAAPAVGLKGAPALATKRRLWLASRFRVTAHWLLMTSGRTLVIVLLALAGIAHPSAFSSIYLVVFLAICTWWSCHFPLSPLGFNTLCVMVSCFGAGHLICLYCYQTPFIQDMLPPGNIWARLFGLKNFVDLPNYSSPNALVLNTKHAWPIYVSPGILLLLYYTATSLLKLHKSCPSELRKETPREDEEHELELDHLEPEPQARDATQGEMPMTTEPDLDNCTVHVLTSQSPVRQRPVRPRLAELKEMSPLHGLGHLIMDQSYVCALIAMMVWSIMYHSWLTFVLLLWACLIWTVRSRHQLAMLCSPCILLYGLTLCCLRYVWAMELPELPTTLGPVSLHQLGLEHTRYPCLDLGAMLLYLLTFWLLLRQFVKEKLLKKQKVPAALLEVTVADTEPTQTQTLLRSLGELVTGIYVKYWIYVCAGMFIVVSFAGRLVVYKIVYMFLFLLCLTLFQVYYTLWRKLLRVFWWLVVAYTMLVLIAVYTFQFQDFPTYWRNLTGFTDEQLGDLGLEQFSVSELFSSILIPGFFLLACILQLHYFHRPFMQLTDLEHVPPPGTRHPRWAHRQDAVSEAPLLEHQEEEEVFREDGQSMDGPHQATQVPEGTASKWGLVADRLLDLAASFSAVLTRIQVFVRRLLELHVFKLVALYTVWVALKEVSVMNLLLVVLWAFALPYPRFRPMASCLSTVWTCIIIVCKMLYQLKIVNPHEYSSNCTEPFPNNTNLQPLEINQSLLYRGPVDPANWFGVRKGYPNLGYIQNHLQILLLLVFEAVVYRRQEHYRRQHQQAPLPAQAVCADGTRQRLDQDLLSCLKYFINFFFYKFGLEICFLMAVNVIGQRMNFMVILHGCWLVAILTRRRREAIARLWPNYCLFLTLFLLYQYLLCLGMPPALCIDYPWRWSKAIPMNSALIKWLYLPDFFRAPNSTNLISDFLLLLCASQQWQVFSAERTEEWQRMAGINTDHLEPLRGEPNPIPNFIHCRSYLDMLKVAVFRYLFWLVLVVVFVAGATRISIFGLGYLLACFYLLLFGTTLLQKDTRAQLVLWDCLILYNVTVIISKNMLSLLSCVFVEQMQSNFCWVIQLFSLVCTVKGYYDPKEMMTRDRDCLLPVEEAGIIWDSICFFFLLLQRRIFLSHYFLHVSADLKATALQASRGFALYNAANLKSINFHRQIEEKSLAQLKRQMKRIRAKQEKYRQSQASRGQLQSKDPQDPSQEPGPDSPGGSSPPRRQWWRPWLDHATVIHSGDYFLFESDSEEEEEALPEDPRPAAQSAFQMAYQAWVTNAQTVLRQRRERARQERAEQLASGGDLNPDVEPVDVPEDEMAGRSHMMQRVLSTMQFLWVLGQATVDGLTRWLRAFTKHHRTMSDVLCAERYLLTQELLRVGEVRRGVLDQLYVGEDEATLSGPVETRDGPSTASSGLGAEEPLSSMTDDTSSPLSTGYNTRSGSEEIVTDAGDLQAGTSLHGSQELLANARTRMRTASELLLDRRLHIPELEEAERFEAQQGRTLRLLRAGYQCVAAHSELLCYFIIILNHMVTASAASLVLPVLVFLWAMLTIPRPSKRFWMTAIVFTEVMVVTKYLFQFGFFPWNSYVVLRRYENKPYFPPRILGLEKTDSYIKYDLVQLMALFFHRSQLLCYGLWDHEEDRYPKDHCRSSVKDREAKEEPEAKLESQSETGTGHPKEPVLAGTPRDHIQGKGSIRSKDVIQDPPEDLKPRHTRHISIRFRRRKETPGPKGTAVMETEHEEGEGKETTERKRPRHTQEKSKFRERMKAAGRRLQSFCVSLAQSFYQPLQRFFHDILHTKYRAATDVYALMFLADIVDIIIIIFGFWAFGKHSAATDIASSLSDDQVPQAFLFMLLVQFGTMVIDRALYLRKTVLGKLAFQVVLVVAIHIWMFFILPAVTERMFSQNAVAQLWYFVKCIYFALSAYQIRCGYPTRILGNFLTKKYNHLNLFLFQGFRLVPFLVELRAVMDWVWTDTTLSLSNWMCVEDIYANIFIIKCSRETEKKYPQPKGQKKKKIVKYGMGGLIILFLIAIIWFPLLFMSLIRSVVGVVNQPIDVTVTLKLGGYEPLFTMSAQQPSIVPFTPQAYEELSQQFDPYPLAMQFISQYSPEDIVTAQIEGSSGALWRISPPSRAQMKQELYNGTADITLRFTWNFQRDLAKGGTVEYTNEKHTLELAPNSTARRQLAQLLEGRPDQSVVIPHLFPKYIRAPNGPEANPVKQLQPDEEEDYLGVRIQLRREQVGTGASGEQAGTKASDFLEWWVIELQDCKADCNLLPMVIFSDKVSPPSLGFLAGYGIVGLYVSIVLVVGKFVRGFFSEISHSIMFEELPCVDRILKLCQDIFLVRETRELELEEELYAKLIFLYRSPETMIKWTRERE
UniProt P63330: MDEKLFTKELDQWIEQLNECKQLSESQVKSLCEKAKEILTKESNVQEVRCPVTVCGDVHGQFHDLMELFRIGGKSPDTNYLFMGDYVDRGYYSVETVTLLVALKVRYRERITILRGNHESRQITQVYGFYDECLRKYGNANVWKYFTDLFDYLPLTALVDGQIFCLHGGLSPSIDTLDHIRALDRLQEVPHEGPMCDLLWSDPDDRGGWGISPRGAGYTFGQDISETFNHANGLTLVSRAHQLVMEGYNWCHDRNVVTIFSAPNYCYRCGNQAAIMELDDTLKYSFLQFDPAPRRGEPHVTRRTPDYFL

These are yes or no findings as the source states them, for the method shown. Binding seen in cells or lysates may run through a third protein. Binding can be weak; no strength is given.

On to “protein phosphatase 2A (PP2A) (from UniProt P63330) (enzyme)”, for which the binding entry is on record as “binds”.

For the origin of these results see paper PMC12507952.
